Measurements from “University of Dundee, Small-Polar-MMV Screening Library” (2021), ChEMBL document CHEMBL3988442.

By UniProt entry, the sequences of proteins in these tests, tags left out.
UniProt E9BF75, entry or part of it: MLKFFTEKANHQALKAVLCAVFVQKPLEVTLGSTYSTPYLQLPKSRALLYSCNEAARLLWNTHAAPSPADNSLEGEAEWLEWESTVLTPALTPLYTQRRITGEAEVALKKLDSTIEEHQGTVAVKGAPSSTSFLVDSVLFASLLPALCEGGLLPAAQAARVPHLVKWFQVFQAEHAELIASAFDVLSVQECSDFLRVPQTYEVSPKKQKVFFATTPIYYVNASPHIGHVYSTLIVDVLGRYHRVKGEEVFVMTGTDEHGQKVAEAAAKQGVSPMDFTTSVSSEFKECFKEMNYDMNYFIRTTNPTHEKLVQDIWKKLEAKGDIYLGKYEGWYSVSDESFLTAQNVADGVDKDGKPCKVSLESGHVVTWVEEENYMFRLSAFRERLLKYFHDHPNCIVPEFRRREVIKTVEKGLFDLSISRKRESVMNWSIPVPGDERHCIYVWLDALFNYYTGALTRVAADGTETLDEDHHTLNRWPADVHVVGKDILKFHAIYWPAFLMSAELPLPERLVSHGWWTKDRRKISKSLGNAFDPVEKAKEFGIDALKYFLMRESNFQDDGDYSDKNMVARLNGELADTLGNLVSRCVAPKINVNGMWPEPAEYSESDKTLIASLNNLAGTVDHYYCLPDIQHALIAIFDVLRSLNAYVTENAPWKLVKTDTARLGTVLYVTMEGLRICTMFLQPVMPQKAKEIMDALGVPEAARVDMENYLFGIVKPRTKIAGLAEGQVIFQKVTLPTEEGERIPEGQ

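Primary screen of methionyl-tRNA synthetase; the read-out is not stated. Target: Methionyl-tRNA synthetase (putative), Leishmania donovani (UniProt E9BF75). The test concentration is not given. Values are per cent inhibition. Of about 68,000 compounds tested this way, about 24 (0.035%) reached 50% or more in at least one test.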

All values are in %.
The controls that fix the scale are not given in the record; negative values are as filed.
This is an unselected part of the compounds tested.

compound: Cc1noc(CN2CCC(Cc3ccc(F)cc3)CC2)n1
inhibition: 14.03%

compound: Cn1cnc(S(=O)(=O)N2CCO[C@H]3[C@H](OCC4CC4)CC[C@@H]32)c1
inhibition: 12.41%

compound: Cn1cnc2c1CCN(C(C(=O)N1CCCCC1)c1ccccc1)C2 (centres unmarked)
inhibition: 10.53%

compound: CC(C)N(C)[C@@H]1CCN(C(=O)[C@H]2CCCO2)[C@H]1Cc1cnn(C)c1
inhibition: 13.48%

compound: CCC1=N[C@@]2(CC[C@@H]3CN(Cc4ccccc4F)C[C@@H]32)C(=O)N1
inhibition: 12.2%

compound: Cn1ccc(CN2CCCN(c3nccs3)CC2)cc1=O
inhibition: 10.68%

compound: c1ccc(Cc2noc(CN3CCCC3C3CCCCC3)n2)cc1 (centres unmarked)
inhibition: -0.2793%

compound: CCN(CC)S(=O)(=O)CC(=O)Nc1ccsc1
inhibition: 10.57%

compound: COCC(O)CN1CCC(=O)N(Cc2ccco2)Cc2ccccc21 (centres unmarked)
inhibition: 3.562%

compound: Cc1cccc(OC2CCN(c3nccnc3C#N)CC2)n1
inhibition: 5.017%

compound: CC(C)c1cccc(NC(=O)Cn2c(=O)n(C)c(=O)c3sccc32)c1
inhibition: 5.143%

compound: Cc1nn(C)cc1-c1cc(C(F)(F)F)nc(NC2CCN(C)CC2)n1
inhibition: 10.53%

compound: CN(CC(=O)NCc1ccco1)Cc1nc2c(s1)CCCC2
inhibition: 17.56%

compound: Cc1ccc(N(C)[C@@H]2CC[C@@H]3CN(C(=O)C4CCOCC4)C[C@@H]32)nn1
inhibition: 16.46%

compound: CCc1nn(C)c(Cl)c1CN1CCN(c2nc(C(N)=O)cs2)CC1
inhibition: 5.292%

compound: Cc1cc(NCC2CCCCC2)n2ncnc2n1
inhibition: 9.006%

compound: COc1cccc(CN2CCCC2c2cncc(Nc3nncs3)n2)c1 (centres unmarked)
inhibition: 2.625%

compound: Cc1noc(C)c1CN(C)CC(=O)/N=c1\cc[nH]n1C(C)C1CC1 (centres unmarked)
inhibition: 8.247%

compound: O=C(C1CC1)N1CCc2ccccc2C12CCNCC2
inhibition: 13.11%

compound: CCC(=O)N1CCCN(C(=O)c2cc(C)cc(Br)c2O)CC1
inhibition: 15.07%

compound: CC(=O)N[C@@H]1CN(CC(=O)NCc2ccccc2C)C[C@H]1C(C)C
inhibition: 6.87%

compound: C=C(C)CN1CCC(NC(=O)Nc2cc(C(N)=O)ccc2OC)CC1
inhibition: 7.065%

compound: CN1CCN(C(=O)CCC(=O)c2cccs2)Cc2ccccc21
inhibition: -6.143%

compound: CCS(=O)(=O)N1CCCn2nnc(CNC(C)=O)c2C1
inhibition: 5.279%

compound: CC(NC(=O)c1ccoc1)C(=O)N(C)Cc1ccsc1 (centres unmarked)
inhibition: 12.53%

compound: O=C(c1ccnn1COc1ccc(Cl)cc1)N1CCOCC1
inhibition: 1.602%

compound: CCc1ncc(C(=O)N2CCC(O)(CN3CCOCC3)C(C)(C)C2)cn1 (centres unmarked)
inhibition: 12.98%

compound: Cc1nc(N(C)Cc2cccc(O)c2)nc2cc(S(C)(=O)=O)ccc12
inhibition: 20.07%

compound: Cc1ccc(-c2nc(CN(Cc3cccs3)CC3CCCO3)no2)cc1 (centres unmarked)
inhibition: 23.21%

compound: CC(O)CN1CCN(C(=O)CCOC(C)C)CC1 (centres unmarked)
inhibition: 7.258%

compound: Cc1cc(NC(=O)CN2CCCC2c2c(C)nn(C)c2Cl)on1 (centres unmarked)
inhibition: 27.93%

compound: COc1ccc(CCC(=O)Nc2cccnc2N2CCCC2)cc1Br
inhibition: 6.536%

compound: Cc1cc(C[C@@H]2COC[C@H]2NCc2ccc(Cl)c(Cl)c2)on1
inhibition: -1.294%

compound: COc1cc(C(=O)NCC2CCCN(Cc3ccco3)C2)ccn1 (centres unmarked)
inhibition: 2.091%

compound: Cc1cccc(C(=O)N2C[C@@H]3OCCN(c4ncccn4)[C@@H]3C2)n1
inhibition: 12.97%

compound: Cc1nn(C)c(N2CCOCC2)c1CNC(C(N)=O)c1ccccc1 (centres unmarked)
inhibition: 19.6%

compound: O=C(c1cc(-c2cn[nH]c2)nc2cc(F)ccc12)N1CCS(=O)(=O)CC1
inhibition: 7.453%

compound: CC(C)CN1CCCC1c1cc[nH]n1 (centres unmarked)
inhibition: 25.95%

compound: COCCn1cc(NC(=O)N(CCC(N)=O)Cc2ccccc2)cn1
inhibition: 16.17%

compound: CCn1ccc(CNC(=O)c2cc(OC)cc(OC)c2)n1
inhibition: 11.05%

compound: Cc1cccc(CNC(=O)NCC2CCN(Cc3ncc[nH]3)C2)c1 (centres unmarked)
inhibition: 21.77%

compound: CCN(C)c1ncnc2c1CCN(C(=O)c1ccc(C)o1)CC2
inhibition: 4.301%

compound: Cc1ncnc2c1CCN(C(=O)c1ccncc1F)CC2
inhibition: 19.37%

compound: Cc1cc(C)c(CNCC(O)c2ccc(F)c(F)c2)c(C)c1 (centres unmarked)
inhibition: 9.341%

compound: CS(=O)(=O)c1cc(Cl)cnc1C1CCN(C(=O)C2CC2)CC1
inhibition: -1.869%

compound: COCCN1C(=O)CC[C@@H]2[C@H]1CCN2Cc1ccc(C)s1
inhibition: 16.83%

compound: Cc1ccc(C(=O)N2CCCC(c3cc(C(F)(F)F)[nH]n3)C2)o1 (centres unmarked)
inhibition: 16.2%

compound: O=C(Cc1ccccn1)N1CC[C@]2(C[C@@H](Oc3ncccc3F)CO2)C1
inhibition: 11.25%

compound: CCc1nccn1C1CCCN(C(=O)c2cn3cccnc3n2)C1 (centres unmarked)
inhibition: 9.804%

The first 3 entries again:

Result for Cc1noc(CN2CCC(Cc3ccc(F)cc3)CC2)n1 was 14.03%.
Result for Cn1cnc(S(=O)(=O)N2CCO[C@H]3[C@H](OCC4CC4)CC[C@@H]32)c1 was 12.41%.
Result for Cn1cnc2c1CCN(C(C(=O)N1CCCCC1)c1ccccc1)C2 (centres unmarked) was 10.53%.